Data: patent US8663602B2, “Method for high-throughput screening of compounds and combinations of compounds for discovery and quantification of actions, particularly unanticipated therapeutic or toxic actions, in biological systems” (The Regents of the University of California, priority 2003, dated 2014)
Entries after “also recorded” stand apart in the source; their conditions may differ. Where two headings read alike, the source gives them in different places. At least one compound was matched to its structure with a doubt left.

Experiments:
[1] = system: phosphoenolpyruvate-carboxykinase (PEPCK); conditions: adipocytes / adipose tissue, cited from earlier work
[2] = system: glyceroneogenesis in adipose TG synthesis; test: Glyceroneogenesis contribution to adipose TG synthesis (n of TG-glycerol by MIDA) in mice
[3] = system: glycerol-kinase; conditions: adipose tissue / isolated adipocytes; cited from earlier work

CN(CCOc1ccc(CC2SC(=O)NC2=O)cc1)c1ccccn1 (stereo not shown) [rosiglitazone]
PEPCK expression and activity [1]: induce expression of PEPCK
PEPCK expression and activity ([1]; listed as Rosiglitazone): increase phosphoenolpyruvate-carboxykinase (PEPCK) expression and activity
n with rosiglitazone treatment ([2]; FIG. 8, overall statement): increase in n
n (C-H bonds of TG-glycerol derived from tissue water) ([2]; all adipose depots, by 75 days of diet): significantly higher
n (C-H bonds of TG-glycerol derived from tissue water) ([2]; epididymal and inguinal adipose depots, HC diet with rosiglitazone, 26 days of diet, 15 days of 2H2O): significantly increased n
glyceroneogenesis ([2]; rodents exposed to rosiglitazone (about 3 mg/kg/mouse/day in diet)): marked increase in glyceroneogenesis
glycerol-kinase activity [3]: increase the low levels of glycerol-kinase activity; also recorded: significantly increase glycerol-kinase activity
